In patent US10590456B2, “Ribosomes with tethered subunits” (Northwestern University, priority 2014, dated 2020):
At least one compound was matched to its structure with a doubt left.

Test system: wild-type ribosomes
Experiment: Antibiotic inhibition of orthogonal sf-gfp translation by wild-type ribosomes in cell-free system
Format: biochemical, E. coli
Conditions: clindamycin 50 μM
Experimental: Ribosomes (wild-type) or oRibo-T (mixed with wild-type ribosomes) were prepared from SQ171fg cells transformed with pAM552 or poRibo-T1, respectively. An orthogonal sf-gfp gene was PCR amplified from the plasmid pT7oGFP using primers […] (SEQ ID NO: 227) and […] (SEQ ID NO: 228). The transcription-translation reaction was carried out in Δ(ribosome, amino acid, tRNA) PURExpress system as described above. The 7.5 μl reactions were supplemented with 18.75 ng DNA template and 7.5 pmol ribosomes and when needed, clindamycin or pactamycin were added to the reactions to the final concentrations of 50 μM or 100 μM respectively.

In the case of `CCC[C@@H]1C[C@@H](C(=O)N[C@@H]([C@H]2O[C@H](SC)[C@H](O)[C@@H](O)[C@H]2O)[C@H](C)Cl)N(C)C1` [clindamycin], the “inhibition of reporter expression by wild-type ribosomes” value is reported as “completely inhibited”.
